Results are given in words; binding and its absence hold for the method and conditions named. Binding seen in cells or lysates may run through a third protein. Here binding means that the protein was enriched with, or labelled near, the bait; the list need not be complete.
Molecular target: S-tagged HBZ (HTLV-1 basic leucine zipper factor), wild type (HTLV-1) (UniProt P0C746)
Assay: affinity purification with mass spectrometry; S-tagged bait purified on S beads from lysates of transfected HEK293T cells (NP-40 lysis buffer, MG-132 treated), SDS-PAGE, whole lanes digested with trypsin, MS/MS

Protein sequences, listed by entry. Tags and fused reporters are not part of them.
UniProt O95071: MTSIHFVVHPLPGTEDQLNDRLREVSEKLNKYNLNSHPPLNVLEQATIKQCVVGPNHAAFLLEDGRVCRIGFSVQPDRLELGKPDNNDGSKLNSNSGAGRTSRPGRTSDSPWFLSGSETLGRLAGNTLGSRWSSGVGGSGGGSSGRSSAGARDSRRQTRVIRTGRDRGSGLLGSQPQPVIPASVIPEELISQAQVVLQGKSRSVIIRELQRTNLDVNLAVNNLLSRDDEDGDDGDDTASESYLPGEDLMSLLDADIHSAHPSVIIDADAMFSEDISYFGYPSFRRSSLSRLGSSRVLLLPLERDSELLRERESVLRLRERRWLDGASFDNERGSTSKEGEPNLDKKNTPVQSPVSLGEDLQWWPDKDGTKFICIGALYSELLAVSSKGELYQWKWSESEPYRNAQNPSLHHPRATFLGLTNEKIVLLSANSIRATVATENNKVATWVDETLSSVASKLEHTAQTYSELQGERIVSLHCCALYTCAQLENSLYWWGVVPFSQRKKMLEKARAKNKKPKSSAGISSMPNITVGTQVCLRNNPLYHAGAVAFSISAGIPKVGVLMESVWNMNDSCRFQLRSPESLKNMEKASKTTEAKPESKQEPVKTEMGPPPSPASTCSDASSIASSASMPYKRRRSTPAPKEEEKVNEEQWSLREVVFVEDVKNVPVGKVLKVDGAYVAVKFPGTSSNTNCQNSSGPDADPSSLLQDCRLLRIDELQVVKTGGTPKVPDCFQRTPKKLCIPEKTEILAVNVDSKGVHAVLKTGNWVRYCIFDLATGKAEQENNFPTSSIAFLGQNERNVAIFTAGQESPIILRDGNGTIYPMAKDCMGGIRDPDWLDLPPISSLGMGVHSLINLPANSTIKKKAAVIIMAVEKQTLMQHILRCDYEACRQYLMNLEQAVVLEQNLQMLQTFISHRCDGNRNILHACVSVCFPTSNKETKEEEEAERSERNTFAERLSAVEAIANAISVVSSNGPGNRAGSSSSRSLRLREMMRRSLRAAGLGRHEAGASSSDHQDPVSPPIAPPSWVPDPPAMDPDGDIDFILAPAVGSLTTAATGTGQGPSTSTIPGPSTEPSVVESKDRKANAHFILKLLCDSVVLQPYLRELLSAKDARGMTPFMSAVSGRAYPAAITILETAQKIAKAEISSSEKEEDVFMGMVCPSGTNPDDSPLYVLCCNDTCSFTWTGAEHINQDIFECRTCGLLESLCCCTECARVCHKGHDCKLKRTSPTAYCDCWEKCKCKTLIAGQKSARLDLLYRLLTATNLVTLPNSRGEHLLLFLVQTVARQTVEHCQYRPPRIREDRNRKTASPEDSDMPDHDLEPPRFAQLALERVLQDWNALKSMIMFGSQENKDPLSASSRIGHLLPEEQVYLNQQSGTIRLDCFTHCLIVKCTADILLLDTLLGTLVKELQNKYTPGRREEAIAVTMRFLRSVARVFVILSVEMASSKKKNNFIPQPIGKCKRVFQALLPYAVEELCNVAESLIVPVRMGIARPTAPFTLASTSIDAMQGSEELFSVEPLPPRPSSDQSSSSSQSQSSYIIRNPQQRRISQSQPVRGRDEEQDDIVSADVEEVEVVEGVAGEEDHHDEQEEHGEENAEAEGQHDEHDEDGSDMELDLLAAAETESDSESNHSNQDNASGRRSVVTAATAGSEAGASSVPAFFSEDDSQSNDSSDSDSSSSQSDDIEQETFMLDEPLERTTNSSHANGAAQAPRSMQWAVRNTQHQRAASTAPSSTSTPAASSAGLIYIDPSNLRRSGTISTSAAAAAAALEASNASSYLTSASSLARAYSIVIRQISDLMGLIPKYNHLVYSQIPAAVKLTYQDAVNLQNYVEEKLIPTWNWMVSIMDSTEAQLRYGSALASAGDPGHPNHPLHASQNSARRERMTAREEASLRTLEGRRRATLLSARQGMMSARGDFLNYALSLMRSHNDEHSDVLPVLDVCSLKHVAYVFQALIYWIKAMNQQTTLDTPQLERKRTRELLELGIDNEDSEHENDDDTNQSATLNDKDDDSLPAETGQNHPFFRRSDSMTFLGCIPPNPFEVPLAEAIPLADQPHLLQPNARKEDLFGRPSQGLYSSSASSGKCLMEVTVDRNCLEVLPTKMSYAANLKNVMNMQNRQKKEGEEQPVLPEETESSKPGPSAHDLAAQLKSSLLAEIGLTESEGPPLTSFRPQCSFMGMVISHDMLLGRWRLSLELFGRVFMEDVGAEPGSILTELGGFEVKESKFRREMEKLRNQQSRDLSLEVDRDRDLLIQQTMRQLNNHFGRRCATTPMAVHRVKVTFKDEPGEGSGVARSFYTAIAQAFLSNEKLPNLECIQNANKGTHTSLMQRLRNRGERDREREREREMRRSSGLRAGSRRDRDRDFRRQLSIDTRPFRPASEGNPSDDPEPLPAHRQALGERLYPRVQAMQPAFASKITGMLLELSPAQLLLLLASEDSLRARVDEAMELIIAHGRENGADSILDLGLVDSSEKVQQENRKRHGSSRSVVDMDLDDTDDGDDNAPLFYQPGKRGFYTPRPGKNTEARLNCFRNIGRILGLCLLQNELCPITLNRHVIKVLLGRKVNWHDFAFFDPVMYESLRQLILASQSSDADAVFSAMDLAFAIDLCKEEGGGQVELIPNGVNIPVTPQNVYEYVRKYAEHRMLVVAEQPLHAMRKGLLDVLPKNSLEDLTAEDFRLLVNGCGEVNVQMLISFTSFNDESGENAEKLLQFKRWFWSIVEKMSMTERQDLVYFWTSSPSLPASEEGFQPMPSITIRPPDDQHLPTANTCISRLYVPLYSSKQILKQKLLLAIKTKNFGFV

## UBR5, E3 ubiquitin-protein ligase (endogenous in HEK293T) (from UniProt O95071 1-2799) (enzyme)
  binding: binds
